In doi:10.1101/2025.05.21.655431:
The exact form of at least one protein or probe is not confirmed. For some assays here: The comparison behind a weaker result is the experiment's own reference, which may not be listed here.

By UniProt entry, the sequences of proteins in these tests, tags left out. Where a name states a change or a piece, a line headed by the entry shows the natural chain unless it says otherwise.
UniProt Q9FGZ4: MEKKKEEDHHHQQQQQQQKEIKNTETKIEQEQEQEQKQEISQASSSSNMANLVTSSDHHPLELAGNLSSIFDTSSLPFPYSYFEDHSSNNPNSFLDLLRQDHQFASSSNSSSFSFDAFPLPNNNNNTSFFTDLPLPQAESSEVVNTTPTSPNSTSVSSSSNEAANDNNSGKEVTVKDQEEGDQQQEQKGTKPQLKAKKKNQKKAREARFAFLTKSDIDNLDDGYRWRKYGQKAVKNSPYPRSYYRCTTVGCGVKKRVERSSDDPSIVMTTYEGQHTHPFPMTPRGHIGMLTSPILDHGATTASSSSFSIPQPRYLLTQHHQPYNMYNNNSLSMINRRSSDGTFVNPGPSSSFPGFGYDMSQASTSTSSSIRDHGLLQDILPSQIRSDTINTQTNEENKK

Experiments:
[1] = molecular target: WRKY48 (Arabidopsis thaliana) (UniProt Q9FGZ4); assay: EMSA; settings: unphosphorylated, compared with MPK3-phosphorylated; residues 1-399
[2] = molecular target: phospho-WRKY48 (MPK3-phosphorylated) (Arabidopsis thaliana) (UniProt Q9FGZ4); assay: EMSA; settings: MPK3-phosphorylated, significantly higher than unphosphorylated; residues 1-399

TAAATCGCATCGTGACCGGTCATAAAAAGACACGTGTCGTCATCGCTATCCAAATAATTGACAAACTCGAAGCCGCCAAGGG (double strand) [CIPK6 promoter P1+P2]
binding result [1]: binds more weakly
binding result [2]: binds
